# Laboratory results taken from paper PMC10291574.
# Protein sequences, listed by entry. Tags and fused reporters are not part of them.
# UniProt Q8CI15: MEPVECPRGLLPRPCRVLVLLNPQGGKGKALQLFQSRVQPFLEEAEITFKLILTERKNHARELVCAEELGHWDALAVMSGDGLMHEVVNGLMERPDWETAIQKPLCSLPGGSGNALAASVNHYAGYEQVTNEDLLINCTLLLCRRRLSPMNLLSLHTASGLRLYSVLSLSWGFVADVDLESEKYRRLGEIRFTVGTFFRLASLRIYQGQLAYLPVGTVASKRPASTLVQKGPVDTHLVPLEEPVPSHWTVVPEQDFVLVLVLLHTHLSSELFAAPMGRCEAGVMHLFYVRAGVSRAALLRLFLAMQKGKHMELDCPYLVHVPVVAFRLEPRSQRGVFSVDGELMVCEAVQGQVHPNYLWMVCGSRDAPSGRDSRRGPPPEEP
# No constants are given. Whether binding was seen depends on the method and setting. In cells and extracts the contact can be indirect. Some entries that bind do so weakly or less than the wild type.
# Biological target: T1, aminoacylase 1 (ACY1) (mouse (endogenous in mouse spinal cord)) (UniProt Q99JW2)
# T1 sequence: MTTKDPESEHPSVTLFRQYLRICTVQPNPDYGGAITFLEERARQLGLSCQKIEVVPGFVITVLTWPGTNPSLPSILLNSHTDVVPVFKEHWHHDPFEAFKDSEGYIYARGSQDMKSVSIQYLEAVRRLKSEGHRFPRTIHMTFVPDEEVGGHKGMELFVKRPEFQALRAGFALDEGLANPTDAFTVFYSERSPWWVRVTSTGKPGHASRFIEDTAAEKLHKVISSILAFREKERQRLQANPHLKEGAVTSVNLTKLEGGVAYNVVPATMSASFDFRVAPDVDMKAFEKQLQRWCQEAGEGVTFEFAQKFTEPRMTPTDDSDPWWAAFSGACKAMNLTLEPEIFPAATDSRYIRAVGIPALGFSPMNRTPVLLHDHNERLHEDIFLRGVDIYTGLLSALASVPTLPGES
# Assay: co-IP; mouse spinal cord proteins (RIPA lysis buffer) incubated with ACY1 antibody (AF2700) and protein A/G; after washing SDS-PAGE and blot with SphK1 antibody (sc-365401)
substance,measurement,value
sphingosine kinase 1 (SphK1) (from UniProt Q8CI15 1-382) (enzyme),binding,binds
